Patent US7892833B2, “Using inhibitors of histone deacetylases for the suppression therapy of inherited disease predisposing conditions” (TopoTarget Germany AG, priority 2003, dated 2011)
At least one compound was matched to its structure with a doubt left.

Tested on: C57BL/6J-APC^min mice
Assay: APC^min mouse model, adenoma count after four weeks of treatment
Assay type: in vivo
Protocol: Ten to sixteen weeks old age- and sex-matched heterozygous C57BL/6J-APC^min mice (Jackson Laboratories, Bar Harbor, Me.) were either left untreated or were treated with 2-PPA or Celecoxib. Control animal were injected (i.p.) with PBS. 2-PPA was injected as isotonic aequous solution of the sodium salt (2×400 mg/kg/day) for four weeks, while Celecoxib was fed to the animals ad libidum at 1250 ppm (0, 12%) for four weeks. At necropsy entire intestinal tracts were opened longitudinally and fixed in 10% phosphate buffered formaldehyde for 24 h. Polyp contrast was increased performing a 1 min staining in 0.1% methylene blue prior to determination of polyp numbers and sizes under a dissecting microscope by two independent observers unaware of the treatment that the mice had received.

Q: Which “number of colorectal adenomas” value (APC^min mice treated for 4 weeks, FIG. 2 legend) does the source give for `Cc1ccc(-c2cc(C(F)(F)F)nn2-c2ccc(S(N)(=O)=O)cc2)cc1` [Celecoxib] here?
A: reduction in the number of colorectal adenomas

Q: And the “number of adenomas in the small intestine” value (four weeks, 2-PPA sodium salt i.p. 2×400 mg/kg/day, Celecoxib 1250 ppm in feed, FIG. 2A)?
A: clearly reduces the number of adenomas
